Laboratory results: PubChem BioAssay AID493246 (Drosophila RNAi Screening Center, 2011)

Purpose: 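Genes fly cells need to grow and stay alive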 (primary screen)
Cell system: Drosophila Kc and S2R+ cells
Reagents: long dsRNA against Drosophila genes
Read-out: 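Raw, unnormalised count of remaining cells in each well; per-plate z-scores of cell number underlie the calls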
Scale: Kc cell number and S2R+ cell number: higher = more cells remaining
Call rule: 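Active when the per-plate z-score of cell number is 3 or more in the direction of fewer cells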
The deposit covers about 21,000 reagents; this is an unselected part of those with a known target gene and a result. Over the whole deposit, 429 (2%) were called active. 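Values are raw and not normalised between plates; calls rest on per-plate z-scores that were not deposited.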 Entries without a mark were called inactive. Not stated in the record: the amount of reagent, the time to read-out.

CG1671 [DRSC06617] | Kc cell number, rep 1: 1.28e6; Kc cell number, rep 2: 1.34e6; S2R+ cell number, rep 1: 1.05e6; S2R+ cell number, rep 2: 1.15e6
gwl (greatwall) [DRSC16305] | Kc cell number, rep 1: 1.61e6; Kc cell number, rep 2: 1.71e6; S2R+ cell number, rep 1: 1.14e6; S2R+ cell number, rep 2: 1.23e6
CG34174 [DRSC00101] | Kc cell number, rep 1: 1.65e6; Kc cell number, rep 2: 1.62e6; S2R+ cell number, rep 1: 1.03e6; S2R+ cell number, rep 2: 1.18e6
Cbp53E (Calbindin 53E) [DRSC07356] | Kc cell number, rep 1: 1.58e6; Kc cell number, rep 2: 1.72e6; S2R+ cell number, rep 1: 1.20e6; S2R+ cell number, rep 2: 1.20e6
sun (stunted) [DRSC20140] | Kc cell number, rep 1: 1.48e6; Kc cell number, rep 2: 1.46e6; S2R+ cell number, rep 1: 9.61e5; S2R+ cell number, rep 2: 1.12e6
wrm1 (wurmchen 1) [DRSC11007] | Kc cell number, rep 1: 1.40e6; Kc cell number, rep 2: 1.44e6; S2R+ cell number, rep 1: 1.25e6; S2R+ cell number, rep 2: 1.19e6
Inx3 (Innexin 3) [DRSC14857] | Kc cell number, rep 1: 6.24e5; S2R+ cell number, rep 1: 8.24e5
CG8043 [DRSC16368] | Kc cell number, rep 1: 1.30e6; Kc cell number, rep 2: 1.43e6; S2R+ cell number, rep 1: 1.14e6; S2R+ cell number, rep 2: 1.32e6
Polr2A (RNA polymerase II subunit A) [DRSC20280] | Kc cell number, rep 1: 4.40e5; S2R+ cell number, rep 1: 5.86e5
S2P (site-2 protease) [DRSC07311] | Kc cell number, rep 1: 1.57e6; Kc cell number, rep 2: 1.60e6; S2R+ cell number, rep 1: 1.29e6; S2R+ cell number, rep 2: 1.48e6
a5 (antennal protein 5) [DRSC00798] | Kc cell number, rep 1: 1.57e6; Kc cell number, rep 2: 1.63e6; S2R+ cell number, rep 1: 1.10e6; S2R+ cell number, rep 2: 1.26e6
Gclc (Glutamate-cysteine ligase catalytic subunit) [DRSC18666] | Kc cell number, rep 1: 1.50e6; Kc cell number, rep 2: 1.50e6; S2R+ cell number, rep 1: 1.05e6; S2R+ cell number, rep 2: 1.21e6
Cyp6a13 (Cytochrome P450 6a13) [DRSC07375] | Kc cell number, rep 1: 1.43e6; Kc cell number, rep 2: 1.48e6; S2R+ cell number, rep 1: 1.21e6; S2R+ cell number, rep 2: 1.26e6
Lcp65Aa [DRSC11209] | Kc cell number, rep 1: 1.37e6; Kc cell number, rep 2: 1.29e6; S2R+ cell number, rep 1: 1.16e6; S2R+ cell number, rep 2: 1.21e6
CG6216 [DRSC10606] | Kc cell number, rep 1: 1.31e6; Kc cell number, rep 2: 1.24e6; S2R+ cell number, rep 1: 1.28e6; S2R+ cell number, rep 2: 1.35e6
grn (grain) [DRSC12666] | Kc cell number, rep 1: 5.79e5 (active); Kc cell number, rep 2: 5.30e5; S2R+ cell number, rep 1: 4.45e5; S2R+ cell number, rep 2: 6.02e5
grn (grain) [DRSC16961] | Kc cell number, rep 1: 1.54e6; Kc cell number, rep 2: 1.80e6; S2R+ cell number, rep 1: 1.34e6; S2R+ cell number, rep 2: 1.41e6
alpha-Est1 (alpha-Esterase-1) [DRSC12612] | Kc cell number, rep 1: 1.64e6; Kc cell number, rep 2: 1.68e6; S2R+ cell number, rep 1: 1.25e6; S2R+ cell number, rep 2: 1.27e6
SoYb [DRSC02901] | Kc cell number, rep 1: 1.43e6; Kc cell number, rep 2: 1.51e6; S2R+ cell number, rep 1: 1.12e6; S2R+ cell number, rep 2: 1.26e6
CG6845 [DRSC08576] | Kc cell number, rep 1: 1.61e6; Kc cell number, rep 2: 1.50e6; S2R+ cell number, rep 1: 1.14e6; S2R+ cell number, rep 2: 1.17e6
CG17359 [DRSC10265] | Kc cell number, rep 1: 1.66e6; Kc cell number, rep 2: 1.59e6; S2R+ cell number, rep 1: 1.18e6; S2R+ cell number, rep 2: 1.31e6

Hits (from the list above):
grn (grain) [DRSC12666] | Kc cell number, rep 1: 5.79e5 (active); Kc cell number, rep 2: 5.30e5; S2R+ cell number, rep 1: 4.45e5; S2R+ cell number, rep 2: 6.02e5
